Experimental data from paper PMC10523135 (RSC Advances, 2023).

Tested on: MCF-7 (human breast cancer cell line)
Assay: CCK-8 antiproliferative assay, MCF-7
Format: cell-based
Conditions: MCF7, 48 h, read-out: IC50 (μM) ± SD MCF-7

IC50: 11.8 ± 0.14 µM
Structure (SMILES): O=C(CCCCCCC(=O)Nc1ccccc1)NO [SAHA]
